Test results taken from patent US8017747B2, “Apoptosis-inducing genes for treating cancer” (Nationwide Children's Hospital, Inc., priority 2004, dated 2011).
Where a name gives a salt, the structure may show the parent alone. Some of these results come from one statement about several compounds together.

System: Jurkat cells
Assay: Phase contrast microscopy of Jurkat cells (morphological changes)
Assay type: cell-based
Conditions: 48 and 72 hours
Description: SAGA transfected, VCR treated, and control cells were visualized microscopically at 0, 12, 48 and 72 hours post transfection/treatment. At 0 hours, the cells in all groups appeared healthy. At 12 hours, there was approximately 5% apoptosis seen in both SAGA- and VCR-treated cell populations. At 48 and 72 hours, more than 50% of apoptotic cells in SAGA- and VCR-treated cell populations were visualized, with a very high degree of morphologically abnormal cells in the population of cells transfected with SAGA, including late necrotic and lysed cells, appearing as cellular debris.

CC[C@]1(O)C[C@H]2CN(CCc3c([nH]c4ccccc34)[C@@](C(=O)OC)(c3cc4c(cc3OC)N(C=O)[C@H]3[C@@](O)(C(=O)OC)[C@H](OC(C)=O)[C@]5(CC)C=CCN6CC[C@]43[C@@H]65)C2)C1 [Vincristine, Vincristine sulfate]
apoptotic cells visualized microscopically: more than 50%
